The text below walks through data of PubChem BioAssay AID1347423 (Functional Genomics Laboratory (NCATS/FGL), 2020).

Among all 52,000 sequences or so, about 210 (0.4%) were called active.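 The calls were made as follows: active = gene whose silencing raises cell survival under the drug, median off-target-corrected z-score across its silencing RNAs 2 or more; inactive = the rest.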 The list shows a part of the results.

The nature of the assay: Resistance to Poly (ADP-Ribose) Polymerase inhibitor: Gene Identification via Genome-wide siRNA Screen. As to conditions: mouse BRCA2 R2336H ES cells, olaparib, CellTiter-Glo viability; stronger effect = higher value. The procedure, abridged: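 Genome-wide siRNA screen (3 siRNAs/gene, 20 nM) in mouse ES cells carrying hypomorphic BRCA2 R2336H; olaparib 500 nM added 48 h post-transfection, CellTiter-Glo viability 72 h later. Normalized to plate-median negative control; MAD z-scores, gene median, seed-adjusted.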
On the technique in general: Cellular ATP, detected with luciferase, serves as a proxy for viable cell number.
Regarding “GGUACUUCUGGAAAAGUACTT against 5730406I15Rik”, the z-score was inactive: -0.0803. In the case of GGGCGUACUGGAAACACAUTT against Pou3f4 it was inactive: 1.67; in that of GGAGUUUGAGGAUGAAGACTT against Mapk8ip, inactive: -0.586. Regarding GGUACAUUUCUAGCUUUGATT against Nfya, the z-score is inactive: -1.71. Consider “CGUGCUAAAUGCUUGUGUGTT against 2610204K14Rik”, for which the z-score was inactive: 0.238. In the case of GGUUCAAGUGACCAAGUUCTT against Odf3 it was inactive: -0.542; in that of CCUGGUACAGUUUUCUAUATT against Gm1019, inactive: 0.371. Regarding GGAUGAAACGGGUGCCUAUTT against Kctd5, the z-score is inactive: -0.9. On to “CGUUUAUCAAUGUAGGUAATT against 6530404F10Rik”, for which the z-score is inactive: 0.33.

Take GGCUUAUGUGCAUAAAAGUTT against Magoh: the z-score is inactive: -1.44.

As to GGACUUCCUGACUAUCAUGTT against Tesc, the z-score is inactive: -0.161. Turning to GCAGCUAGAGGAGUUUCUATT against Clu, the z-score was inactive: 1.51. In the case of GGUGCUCUGUAUAAUUGGUTT against LOC433719 it was inactive: -0.333. Regarding “GGCUUAGGUGCCACAUUCUTT against 9030405D14Rik”, the z-score is inactive: -3.19. To GGUGAUAACCCUGAACAUATT against Rps6kb1 belongs inactive: 0.128. To GAAAUUUCCUAGAUGACUCTT against V1rh4 belongs inactive: 0.631; to GUUCAAACAGUUUUUCAGATT against Tas2r115, inactive: 0.142; to GGGAGAAUUGGAAAGCAGUTT against Myb, inactive: 0.973. In the case of GCAAGUAGCAUCUCUGAUUTT against Nfs1 it was inactive: -1.81.

In the case of GGGAUGAACAUUUUAGGUCTT against Slc1a4, the z-score is inactive: -0.245. To GGCAAAAUCUAUUGUCUUCTT against Ran belongs inactive: 0.214; to “GGAGAGAGAUGAAAUUUGATT against 4832420M10”, inactive: 1.34.

Regarding “GCACACGUCCUAUAAAAAUTT against E130016E03Rik”, the z-score is inactive: -0.156. As to “GGCCUAUAAUUUCUUUACGTT against 5730509K17Rik”, the z-score was inactive: 0.907. Consider GGUGAUACCUCUGUCCUGGTT against Exosc5, for which the z-score was inactive: -1.38. Take GGUGAAGUACAACUAUACUTT against Plxna1: the z-score was inactive: -0.0286. To GGAGCACGGAAACUUGUUCTT against Metap1 belongs inactive: 1.17; to GCCACUUAACCUUCAAAAGTT against BC048502, inactive: -0.052; to “GCUUGUUCACGGACAAGAATT against 2210023C10Rik”, inactive: 1.05.

Consider GGAAAUCACUGCACUGGCUTT against Actc1, for which the z-score was inactive: 0.256. Consider GGAUAGCACAGCCCUACAUTT against Kcns1, for which the z-score was inactive: -1.3.

In the case of GGACAAAAAAAUAGAAGGATT against Rrbp1, the z-score was inactive: -1.53. In the case of GGAUCUAUCUCUAGUCCCGTT against Zfp358 it was inactive: -0.659; in that of GCCCAGAUCAAUUUGAGCGTT against Tcfcp2l3, inactive: 0.76. GGGUCAAGGUAGUAGUACCTT against Tob1: the z-score is inactive: -0.794.

For GGCUUAGAGUCAUCUUUAATT against Mgea6, the z-score is inactive: -0.149. Turning to GAGAAAACAUGACCUGGGUTT against Olfr456, the z-score is inactive: -0.0694. To CCAUGGUCAUCCCGAUGUUTT against Olfr1454 belongs inactive: -1.97; to “CCGGUUCGUUCAGAAGGAGTT against 2610024A01Rik”, inactive: -2; to “GGAAGACACUGGUUUCCAATT against 1700067P10Rik”, inactive: 1.01. To “CCUUCUCUGCCUCGAUGAUTT against 2310016M24Rik” belongs inactive: -0.0938. With “GCUAAUCUUCCACUUGUAATT against 2610318I01Rik”, the z-score was inactive: -0.625.

As to GCAGAAGUGUCAAUAAAACTT against Synj2, the z-score was inactive: -0.0373. In the case of GGCGCAUGUUCACAAAGUGTT against Npc1 it was inactive: -0.637; in that of CCUACAAGCAGAGUACAAUTT against Myo10, inactive: 0.323; in that of GGCGGUGCAGUUCUGUAAATT against Kif18a, inactive: -0.737. As for “GGAUAACUGCUUCAUUUCCTT against D430020F16”, the z-score was inactive: 0.375. To CCGUGGCAUGUUCAUGAAATT against Mpg belongs inactive: 1.19; to CCAGUAGCACGUGUUAUUUTT against RbmY1a1, inactive: 0.193; to GCCGCCAUGGACUUACAAGTT against Stim2, inactive: -0.161. For GCAUGGAAAAAGGCUUUGATT against Olfr91, the z-score was inactive: -0.69. In the case of GGUUUUCAUGGUUAUCUGATT against Nrgn it was inactive: -0.103; in that of GUACCUCUUCUCUAUCACUTT against Pla2g2e, inactive: -0.622; in that of GGAAGAUUUGUUCUAUACUTT against Epgn, inactive: 0.394. To CGAAAAGAAGUGUUUCCUGTT against Lamb2 belongs inactive: 0.531; to “GGUGUCUGGCAAGUACAAATT against 1810010M01Rik”, inactive: 1.58; to GGAACCUUACUCAUGUCCCTT against Tlr6, inactive: -0.62. Consider GGACGAAGACACCAAAGUGTT against Camk2a, for which the z-score is inactive: -0.85. In the case of GCCACUUACCCUUUCAGGCTT against Nfe2, the z-score is inactive: -0.267. In the case of GCAGGUUCACAAUGGAUUATT against Lrrc25 it was inactive: 0.916; in that of GGACAAAUGGGUAUUAUCUTT against Phxr4, inactive: -0.542. For the sequence CCGACUUUGCCAGGAUUUCTT against Fbxl7, the z-score was inactive: 0.636. GCAGGUUAGACCAUGGCUATT against Diras2: the z-score is inactive: 1.07. As to GGACACAAAGGAAUCUCUUTT against Olfr374, the z-score is inactive: -2.22. In the case of CCACUAUUCUUAACUUGGCTT against Hdac7a it was inactive: 1.6; in that of GCUUGUGCCGGAUAAAGGUTT against Gng3, inactive: -0.952.
